# Experimental data as given in publication doi:10.1101/2022.05.27.493704.
# Chains of the proteins cited; added tags and fusions are not shown. Residues count along the entry.
# UniProt Q96EP0, whole entry: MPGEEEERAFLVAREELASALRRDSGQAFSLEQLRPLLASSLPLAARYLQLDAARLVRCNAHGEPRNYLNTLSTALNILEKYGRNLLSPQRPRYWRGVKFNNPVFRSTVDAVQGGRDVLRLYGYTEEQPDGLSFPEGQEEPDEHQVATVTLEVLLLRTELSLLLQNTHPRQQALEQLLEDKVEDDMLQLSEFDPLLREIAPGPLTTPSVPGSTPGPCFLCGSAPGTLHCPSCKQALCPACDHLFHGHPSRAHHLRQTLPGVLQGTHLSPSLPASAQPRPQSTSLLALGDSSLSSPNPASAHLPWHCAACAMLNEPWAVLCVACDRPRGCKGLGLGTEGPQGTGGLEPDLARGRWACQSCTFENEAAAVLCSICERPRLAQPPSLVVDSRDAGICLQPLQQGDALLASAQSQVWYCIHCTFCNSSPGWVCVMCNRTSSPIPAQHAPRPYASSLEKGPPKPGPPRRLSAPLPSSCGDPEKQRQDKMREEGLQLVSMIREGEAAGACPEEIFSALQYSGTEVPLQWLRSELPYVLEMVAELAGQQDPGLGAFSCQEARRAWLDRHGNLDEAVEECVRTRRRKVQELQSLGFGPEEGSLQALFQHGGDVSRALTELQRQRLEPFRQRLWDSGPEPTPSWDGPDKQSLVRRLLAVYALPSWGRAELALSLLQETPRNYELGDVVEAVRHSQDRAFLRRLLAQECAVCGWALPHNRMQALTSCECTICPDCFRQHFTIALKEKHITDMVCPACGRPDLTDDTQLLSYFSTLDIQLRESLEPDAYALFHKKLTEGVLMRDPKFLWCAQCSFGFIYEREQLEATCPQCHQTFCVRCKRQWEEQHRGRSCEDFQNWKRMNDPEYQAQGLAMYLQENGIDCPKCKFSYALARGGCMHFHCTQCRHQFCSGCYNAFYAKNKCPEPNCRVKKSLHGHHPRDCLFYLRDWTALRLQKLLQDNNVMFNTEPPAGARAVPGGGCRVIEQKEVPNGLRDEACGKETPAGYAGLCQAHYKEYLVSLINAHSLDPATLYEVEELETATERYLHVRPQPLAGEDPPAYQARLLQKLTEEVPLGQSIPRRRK
# UniProt Q96EP0, 1-475: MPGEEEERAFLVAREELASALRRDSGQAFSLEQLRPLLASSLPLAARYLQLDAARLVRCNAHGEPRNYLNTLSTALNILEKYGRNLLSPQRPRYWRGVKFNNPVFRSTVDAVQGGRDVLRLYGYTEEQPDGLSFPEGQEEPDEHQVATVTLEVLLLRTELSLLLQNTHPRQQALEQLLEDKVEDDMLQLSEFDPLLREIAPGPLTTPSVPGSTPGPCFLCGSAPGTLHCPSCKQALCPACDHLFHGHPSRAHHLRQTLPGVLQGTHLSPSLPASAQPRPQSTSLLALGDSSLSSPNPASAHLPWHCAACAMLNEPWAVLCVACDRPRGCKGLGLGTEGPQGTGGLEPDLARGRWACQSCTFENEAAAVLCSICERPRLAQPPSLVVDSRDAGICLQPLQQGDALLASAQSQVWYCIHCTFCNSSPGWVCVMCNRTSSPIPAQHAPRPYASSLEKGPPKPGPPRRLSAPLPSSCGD
# UniProt Q96EP0, 1-697: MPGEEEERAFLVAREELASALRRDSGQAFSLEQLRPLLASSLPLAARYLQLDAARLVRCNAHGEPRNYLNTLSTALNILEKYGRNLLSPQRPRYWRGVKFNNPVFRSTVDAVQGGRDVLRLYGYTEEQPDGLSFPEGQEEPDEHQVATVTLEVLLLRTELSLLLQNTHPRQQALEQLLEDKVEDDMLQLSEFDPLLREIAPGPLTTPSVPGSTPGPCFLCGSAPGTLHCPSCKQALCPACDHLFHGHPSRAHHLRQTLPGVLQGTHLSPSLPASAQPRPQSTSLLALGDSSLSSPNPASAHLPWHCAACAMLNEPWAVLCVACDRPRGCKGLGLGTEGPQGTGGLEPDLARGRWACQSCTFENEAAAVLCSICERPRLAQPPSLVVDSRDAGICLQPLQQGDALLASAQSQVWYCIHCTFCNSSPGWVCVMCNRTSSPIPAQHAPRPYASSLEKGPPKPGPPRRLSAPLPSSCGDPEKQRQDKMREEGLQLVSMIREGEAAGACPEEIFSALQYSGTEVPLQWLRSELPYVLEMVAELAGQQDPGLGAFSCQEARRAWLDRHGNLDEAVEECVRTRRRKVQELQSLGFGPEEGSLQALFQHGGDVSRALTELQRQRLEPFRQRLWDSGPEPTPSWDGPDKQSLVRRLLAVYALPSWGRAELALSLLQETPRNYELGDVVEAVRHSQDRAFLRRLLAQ
# UniProt Q96EP0, 697-1072: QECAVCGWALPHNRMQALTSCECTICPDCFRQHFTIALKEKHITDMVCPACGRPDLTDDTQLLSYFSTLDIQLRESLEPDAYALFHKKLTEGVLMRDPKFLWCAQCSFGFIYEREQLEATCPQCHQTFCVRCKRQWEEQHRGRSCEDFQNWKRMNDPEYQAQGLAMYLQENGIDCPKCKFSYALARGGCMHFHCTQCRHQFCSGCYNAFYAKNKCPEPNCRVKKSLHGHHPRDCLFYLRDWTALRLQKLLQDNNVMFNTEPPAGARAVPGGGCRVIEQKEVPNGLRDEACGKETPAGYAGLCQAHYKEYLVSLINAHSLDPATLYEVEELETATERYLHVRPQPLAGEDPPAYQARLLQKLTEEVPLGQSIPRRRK
# UniProt Q9BXM7, 78-581: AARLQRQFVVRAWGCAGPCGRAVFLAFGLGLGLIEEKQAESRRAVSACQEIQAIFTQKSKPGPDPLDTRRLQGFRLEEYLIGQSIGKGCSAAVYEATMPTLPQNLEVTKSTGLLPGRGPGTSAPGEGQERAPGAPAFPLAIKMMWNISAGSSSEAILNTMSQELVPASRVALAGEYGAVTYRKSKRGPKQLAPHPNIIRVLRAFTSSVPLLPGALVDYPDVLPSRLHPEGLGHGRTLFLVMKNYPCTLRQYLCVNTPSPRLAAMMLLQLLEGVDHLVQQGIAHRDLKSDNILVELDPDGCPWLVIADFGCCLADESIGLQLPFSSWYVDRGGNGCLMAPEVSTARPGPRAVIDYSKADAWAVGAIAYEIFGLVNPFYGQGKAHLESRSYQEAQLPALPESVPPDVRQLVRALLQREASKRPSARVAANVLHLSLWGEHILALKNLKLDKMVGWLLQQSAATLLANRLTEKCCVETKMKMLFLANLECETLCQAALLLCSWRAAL
# These are yes or no findings as the source states them, for the method shown. For some assays here: Binding seen in cells or lysates may run through a third protein. Some entries that bind do so weakly or less than the wild type.
# How the values were obtained:
# [1] = biological target: endogenous HOIP (human (endogenous in HEK293T)) (UniProt Q96EP0); test: SEC
# [2] = biological target: HA-HOIP 1-697 (N-terminal part of HOIP) (human) (UniProt Q96EP0); test: co-IP
# [3] = biological target: HA-tagged C-terminal part of HOIP (aa 697-1072) (human) (UniProt Q96EP0); test: co-IP
# [4] = biological target: HA-tagged HOIP 1-475 aa construct (human) (UniProt Q96EP0); test: co-IP
# [5] = biological target: HA-tagged full-length HOIP (human) (UniProt Q96EP0); test: co-IP
substance,measurement,setting,value
V5-tagged PINK1 (wildtype PINK1-V5) (from UniProt Q9BXM7 78-581),binding,[1],binds
same,binding,[2],binds
same,binding,[3],no binding
same,binding,[4],binds
same,binding,[5],binds
